Some of the results follow. Shown are side measurements of this screen, not its main read-out; they come without a call. Most of these compounds were active or inconclusive in the main read-out, so they are no random draw. The note in brackets gives the kind of curve behind each potency; many fits are weak.

One experiment is described as follows: NCATS anti-infectives library activity on the primary C. elegans qHTS viability assay (AID 1745855). Particulars: C. elegans worm area imaging, day 7; measured here: worm area, day 3. The method, boiled down:
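GFP read-out by 488 nm laser cytometry at day 0, 3 and 7, gated on object perimeter, area and peak intensity, scored viability of PE254-GFP-FLuc worms exposed to compound in S medium with bacterial capsules at 21 °C.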
On the technique in general: qHTS replaces the single test concentration by a dilution series.
Regarding `CC(C)c1cc(C(=O)N2CC[C@@H](NC(=O)C3CC3)C2)n[nH]1`, the AC50 (commonly the concentration at which the activity in the assay is half-maximal) was 29 µM [falling, single point].

For `CN1C(N)=N[C@](C)(c2cc(NC(=O)c3ccc(F)cn3)ccc2F)CS1(=O)=O`, the half-maximal activity concentration (AC50) was 25.8 µM [falling, single point]. Take `CC(C)c1nc(CN(C)C(=O)N[C@@H](CCN2CCOCC2)C(=O)N[C@H](CC[C@H](Cc2ccccc2)NC(=O)OCc2cncs2)Cc2ccccc2)cs1`: the half-maximal activity concentration (AC50) is 25.8 µM [falling, single point]. In the case of `C=C[C@@H]1C[C@]1(NC(=O)[C@@H]1C[C@@H](Oc2ncc(OC)c3ccc(Cl)cc23)CN1C(=O)[C@@H](NC(=O)OC(C)(C)C)C(C)(C)C)C(=O)NS(=O)(=O)C1CC1`, the half-maximal activity concentration (AC50) was 0.183 µM [falling, full curve, poor fit].

Consider `Cc1onc(-c2ccccc2)c1C(=O)N1CCN(c2ccc([N+](=O)[O-])cc2Cl)CC1`, for which the half-maximal activity concentration (AC50) is 0.325 µM [falling, full curve, poor fit]. `Nc1nccs1`: the half-maximal activity concentration (AC50) is 1.12 µM [falling, partial curve, poor fit].

For the compound `CN(C)c1nc2c(Br)c(Br)c(Br)c(Br)c2n1CC(=O)O`, the AC50 was 36.5 µM [falling, single point]. As for `CCOC(=O)c1c(C)sc(-c2c(-c3ccc(OC)c(F)c3)[nH]c3c2c(=O)[nH]c(=O)n3C)c1O`, the half-maximal activity concentration (AC50) is 0.0816 µM [falling, full curve, poor fit]. With `C=CC[C@@H]1/C=C(\C)C[C@H](C)C[C@H](OC)[C@H]2O[C@@](O)(C(=O)C(=O)N3CCCC[C@H]3C(=O)O[C@H](/C(C)=C/[C@@H]3CC[C@@H](O)[C@H](OC)C3)[C@H](C)[C@@H](O)CC1=O)[C@H](C)C[C@@H]2OC`, the half-maximal activity concentration (AC50) was 14.5 µM [falling, partial curve, poor fit].

With `CC#Cc1cncc(-c2ccc3c(c2)[C@@]2(N=C(C)C(N)=N2)C2(CCC(OC)CC2)C3)c1` (stereo partly specified), the half-maximal activity concentration (AC50) was 36.5 µM [falling, single point].

Take `CS(=O)(=O)c1cc(-c2ccccc2)cc(S(=O)(=O)c2ccc(CN)s2)c1`: the half-maximal activity concentration (AC50) is 23 µM [falling, single point]. For `C[n+]1cccc(C(=O)[O-])c1`, the half-maximal activity concentration (AC50) is 25.8 µM [falling, single point].

For `CN(C)CC(=O)Nc1ccc2[nH]c(=O)c3ccccc3c2c1`, the AC50 was 18.3 µM [falling, partial curve, poor fit]. For `COc1c2c(cc3c1-c1c(cc4c(c1OC)OCO4)CC(C)C(C)C3)OCO2` (stereo unspecified), the AC50 was 4.5 µM [falling, partial curve, poor fit].

Staying with this experiment, now noted: C. elegans worm area imaging, day 7; measured here: worm number, day 3.
On to `CCCN1CCC=C(c2cc(-c3ccc(C)cc3)no2)C1`, for which the AC50 was 4.09 µM [falling, partial curve, poor fit].

As for `Cc1cnc(NC(=O)c2cc(S(=O)(=O)N(C)C)ccc2N2CCCC2)s1`, the AC50 is 2.9 µM [falling, partial curve, poor fit]. On the same count and under the same terms, the same measure for `CC(C)(CNC(=O)c1cccc(-c2noc(C(F)(F)F)n2)c1)c1coc(-c2ccccc2)n1`: 2.3 µM [falling, partial curve, poor fit]. In the case of `CCCCCCOc1ccccc1C(N)=O`, the concentration at half-maximal activity (AC50) is 0.29 µM [falling, full curve, poor fit]. As for `O=c1c(O[C@@H]2O[C@H](CO)[C@H](O)[C@H](O)[C@H]2O)c(-c2ccc(O)c(O)c2)oc2cc(O)cc(O)c12`, the AC50 was 25.8 µM [falling, single point]. Take `O=C(/C=C/c1ccccc1)NC(NC(=S)Nc1cccc2cccnc12)C(Cl)(Cl)Cl` (stereo unspecified): the concentration at half-maximal activity (AC50) was 29 µM [falling, single point]. As for `O=C1CCc2c(ccc3ccccc23)O1`, the concentration at half-maximal activity (AC50) was 9.16 µM [falling, partial curve, poor fit]. Take `Cc1cccc(/C=N/Nc2cc(N3CCOCC3)nc(OCCc3ccccn3)n2)c1`: the AC50 is 25.8 µM [falling, single point]. Turning to `O=C(NCc1ccco1)c1ccc2c(c1)N(Cc1c(F)cccc1Cl)C(=O)CS2`, the AC50 was 0.115 µM [falling, full curve, poor fit].

In the case of `O=C(O)c1ccccc1O`, the AC50 is 25.8 µM [rising, single point]. In the case of `CCN(CC)C(=S)S`, the half-maximal activity concentration (AC50) is 20.5 µM [falling, partial curve, poor fit]. On to `CC(C)C[C@H](NC(=O)CNC(=O)c1cc(Cl)ccc1Cl)B1OC(=O)C(CC(=O)O)(CC(=O)O)O1`, for which the AC50 is 1.29 µM [falling, full curve, poor fit]. As for `CC(C)c1cc(C(=O)N2CC[C@@H](NC(=O)C3CC3)C2)n[nH]1`, the AC50 is 16.3 µM [falling, partial curve, poor fit]. As to `Cc1cc(C)c(Nc2ccnc(Nc3ccc(C#N)cc3)n2)c(C)c1`, the AC50 is 5.15 µM [falling, partial curve, poor fit]. `OCCc1ccccc1`: the AC50 was 0.816 µM [falling, full curve, poor fit]. Turning to `O=P(O)(O)C(O)(Cn1ccnc1)P(=O)(O)O`, the AC50 is 0.0092 µM [falling, full curve, poor fit]. Consider `CN1C(N)=N[C@](C)(c2cc(NC(=O)c3ccc(F)cn3)ccc2F)CS1(=O)=O`, for which the AC50 is 25.8 µM [falling, single point].

As for `CN(C)c1nc2c(Br)c(Br)c(Br)c(Br)c2n1CC(=O)O`, the AC50 is 45.9 µM [rising, single point]. Take `CCOC(=O)c1c(C)sc(-c2c(-c3ccc(OC)c(F)c3)[nH]c3c2c(=O)[nH]c(=O)n3C)c1O`: the half-maximal activity concentration (AC50) is 5.78 µM [rising, full curve, poor fit]. Turning to `C=CC[C@@H]1/C=C(\C)C[C@H](C)C[C@H](OC)[C@H]2O[C@@](O)(C(=O)C(=O)N3CCCC[C@H]3C(=O)O[C@H](/C(C)=C/[C@@H]3CC[C@@H](O)[C@H](OC)C3)[C@H](C)[C@@H](O)CC1=O)[C@H](C)C[C@@H]2OC`, the AC50 is 0.0578 µM [falling, full curve, poor fit]. Take `CC#Cc1cncc(-c2ccc3c(c2)[C@@]2(N=C(C)C(N)=N2)C2(CCC(OC)CC2)C3)c1` (stereo partly specified): the AC50 was 4.59 µM [falling, partial curve, poor fit]. Take `Cc1oc(=O)oc1CN1CCN(c2cc3c(cc2F)c(=O)c(C(=O)O)c2n3C(C)S2)CC1` (stereo unspecified): the half-maximal activity concentration (AC50) was 7.27 µM [rising, partial curve, poor fit]. As for `O=c1cc(-c2ccc(O)c(O)c2)oc2cc(O[C@@H]3O[C@H](CO)[C@@H](O)[C@H](O)[C@H]3O)cc(O)c12`, the AC50 was 40.9 µM [rising, single point].

With `CS(=O)(=O)c1cc(-c2ccccc2)cc(S(=O)(=O)c2ccc(CN)s2)c1`, the half-maximal activity concentration (AC50) was 9.16 µM [falling, single point].

Take `CCCCCCCCCCCCCCCCn1cc[n+](Cc2ccccc2)c1C`: the concentration at half-maximal activity (AC50) is 0.23 µM [falling, partial curve, poor fit].

With `Cc1nc(N(C)C(=O)Cc2ccc(-c3ccccn3)cc2)sc1S(N)(=O)=O`, the half-maximal activity concentration (AC50) is 16.3 µM [falling, partial curve]. Turning to `CN(C)CC(=O)Nc1ccc2[nH]c(=O)c3ccccc3c2c1`, the AC50 was 0.325 µM [falling, full curve, poor fit].

(Values after PubChem BioAssay (NCATS).)
